Source: US6338963B1, “Use of carbon monoxide dependent guanylyl cyclase modifiers to stimulate neuritogenesis” (NeoTherapeutics, Inc., priority 1994, dated 2002)
Where two headings read alike, the source gives them in different places. For some of these results: At least one compound was matched to its structure with a doubt left. Some entries share one result that the patent states for a list of compounds.

Columns and labels:
NGF = NGF release from rat cultured astrocytes (ELISA); assay type: cell-based; conditions: 100 nm wortmannin, 10 μM PD098,059 or 500 ng/ml CHX added 30 min before and kept 24 hours with 100 μM AIT-082
Procedure: The dose response for AIT-082 and guanosine on nerve growth factor and S100β protein release from rat culture astrocytes is shown in FIG. 30. NGF was assayed by a double-site ELISA, using a monoclonal anti-NGF antibody, coupled or not to β-galactosidase according to the method of I. D. Laviada et al., “Phosphatidylcholine-Phospholipase C Mediates the Induction of Nerve Growth Factor in Cultured Glial Cells,” FEBS Lett. 364: 301-304 (1995).
The NGF and S100β protein were measured by removing the cultured medium for the ELISA assays at each indicated time point.
(§1) NGF and TGFβ2 levels were assayed in the culture medium of the astrocytes by specific ELISA assays using kits from Roche (Germany) and Promega (USA) respectively. NGF basal levels were 56.3±3.2 pg/ml. TGFβ2 levels were 9.1±0.06 pg/ml.
(§2) In FIG. 61, the dose-response curves of NGF and TGFβ2 release from rat cultured astrocytes as the result of exposure to AIT-082 are shown.

TGFβ2 = TGFβ2 release from rat cultured astrocytes (ELISA); assay type: cell-based; conditions: 100 nm wortmannin, 10 μM PD098,059 or 500 ng/ml CHX added 30 min before and kept 24 hours with 100 μM AIT-082
Procedure: as §1, §2

PC12 cells = assay: Neuritogenesis in PC12 cells; assay type: cell-based, rat
Procedure: Much of the work performed in the characterization of the compounds of the present invention involved the use of PC12 cells. These cells are derived from a rat pheochromocytoma and when grown in the presence of NGF, extend neurites, cease cell division and assume many characteristics of sympathetic neurons. When cultured in the absence of nerve growth factor (NGF), few PC12 cells have neurites greater than one cell diameter. Addition of saturating concentrations of NGF for 48 hours stimulates neurite outgrowth in about 20-35% of the cells. […]
Cells cultured in RPMI 1640 with 1.5% horse serum and 1.5% fetal bovine serum were re-plated onto poly-ornithine coated 24-well culture plates (2.5×10^4 cells per well). […] Cells and neurites were counted within 2 days of fixation.
A neurite was defined as a process extending from the cell at least 1 cell body diameter in length and displaying a growth cone at its tip. For each treatment, 2 representative microscope fields were counted from each of 6 sister cultures receiving identical treatments. The total number of cells counted per well (approximately 100 cells) and the total number of cells containing neurites in each well were used to determine fraction of neurite-bearing cells. The mean values (±SEM) were then determined for each of the treatments. […]

SMILES: COC[C@H]1OC(=O)c2coc3c2[C@@]1(C)C1=C(C3=O)[C@@H]2CCC(=O)[C@@]2(C)C[C@H]1OC(C)=O [wortmannin, reference compound]
- effect of inhibitor on AIT-082-induced accumulation of NGF (NGF): partly inhibited
- effect of inhibitor on AIT-082-induced accumulation of TGFβ2 (TGFβ2): partly inhibited

SMILES: OC[C@H]1O[C@@H](n2cnc3c(O)ncnc32)[C@H](O)[C@@H]1O [inosine]
- concentration effective in stimulating neuritogenesis and enhancing NGF-stimulated neuritogenesis (PC12 cells): 3e-05 to 0.0003 mM

SMILES: Nc1nc2c(ncn2[C@@H]2O[C@H](CO)[C@@H](O)[C@H]2O)c(=O)[nH]1 [guanosine]
- concentration effective in stimulating neuritogenesis and enhancing NGF-stimulated neuritogenesis (PC12 cells; 48 hours): 30 to 300 mM
